# Laboratory results taken from patent US20130217892A1, “Use Of N-Substituted 2-Pyrrolidone-4-Carboxylic Acid Esters And Solvents” (CLARIANT FINANCE (BVI) LIMITED, priority 2010, published 2013).
# Some results were stated once for a whole list of compounds, not compound by compound.
# Assay: Determination of the VOC content by gas chromatography in accordance with DIN EN ISO 11890-2
# Assay type: physicochemical
# Settings: GC, DIN EN ISO 11890-2, marker diethyl adipate, substances with boiling point <250° C.
row,Compound,VOC content [% by weight]
1,"COC(=O)C1CC(=O)N(C)C1 (centres unmarked) [example 1, Methyl N-methyl-2-Pyrrolidone-4-Carboxylate]",< 0.2
2,"CC(C)COC(=O)C1CC(=O)N(C)C1 (centres unmarked) [example 2, Isobutyl N-Methyl-2-Pyrrolidone-4-Carboxylate]",< 0.2
